# Screening data, single-dose tests

The values are deposited in ChEMBL (CHEMBL3988442, “University of Dundee, Small-Polar-MMV Screening Library” (2021)).

Mtb glucose medium: 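Phenotypic screen: M. tuberculosis growth, glucose 7H9 medium, 3 days; the read-out is not stated. Compounds at 50 µM. The record gives no direction; compounds that gave an IC50 in retests scored well above the rest, so higher reads as more growth inhibition. About 69,000 compounds were tested under these conditions; 1.1% (about 760) showed 50% or more at least once.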
Mtb cholesterol medium: 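Phenotypic screen: M. tuberculosis growth, cholesterol and DPPC medium, 4 days; the read-out is not stated. Tested at 50 µM. Higher reads as more growth inhibition (inferred: compounds with an IC50 in retests scored well above the rest). Size under these conditions: about 69,000 compounds, about 370 of them at 50% or above in at least one test.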

Each number is a percent effect as filed.
How 0% and 100% were set is not recorded. Most values in the screen are low, and negative values occur.
The compounds are a random part of those screened.
Two or more numbers in one place are separate tests of the same structure; such repeats can differ widely.

Compound,Mtb glucose medium,Mtb cholesterol medium
O=C(NCCNc1ccccn1)NCC1CCS(=O)(=O)C1 (configuration not stated),-34.69% and -7.742%,-23.03%
[H][C@@]12C[C@@H](OCc3ccccc3)C[C@]1([H])CN(Cc1cncnc1)C2,3.287%,19.36%
OCc1cc2ccccc2nc1N1CCCCC1,-13.24%,-33.12%
CCc1ccc(CN2C[C@@H](C(=O)O)[C@H](c3ccccc3OC)C2)o1,-9.515%,-22.75%
CN1CC2(CCN(Cc3cccnc3)CC2)c2cc(F)ccc21,8.274% and 4.932%,14.58%
O=C(NCCCc1cccs1)N1CCCCC1CCO (configuration not stated),24.39%,10.05%
CCn1cnnc1C1CCN(C(=O)COc2ccc(Cl)cc2)CC1,-20.45%,-15.27%
CC[C@@H]1N(Cc2ccncc2)CCC[C@]12CCC(=O)N2CCOC.O=C(O)C(F)(F)F.O=C(O)C(F)(F)F,-22.53%,-3.225%
Cc1cc(C(=O)N2CCc3ncc(CN4CCOCC4)n3CC2)no1,-29.67%,-14.28%
Cn1ncc2c1NC(=O)CC2c1ccc(F)cc1 (configuration not stated),28%,-3.188%
COCC(=O)Nc1nn(Cc2ccc(F)cc2)cc1Cl,-20.9%,-12.03%
Cn1ccnc1CN1CCC2(CC1)CN(c1cncnc1)C(=O)CO2.O=C(O)C(F)(F)F,-18.54%,-13.81% and -32.84%
CCn1cnnc1CNS(=O)(=O)N1CCCC1c1ccco1 (configuration not stated),-27.51%,1.01%
CCc1ccc(CN2CCC3(CC2)NC(=O)CC3c2ccncc2)o1.O=C(O)C(F)(F)F.O=C(O)C(F)(F)F (configuration not stated),-5.185%,-17.33%
CCc1nnc(SCC(=O)N2CCc3[nH]nc(C4CCC4)c3C2)o1,8.061%,10.48%
CC(=O)N1CCc2[nH]nc(C(=O)N3CCOCC3)c2C1,5.7%,12.25%
Cc1cnn(Cc2cc(F)ccc2F)c1NC(=O)NC1CC1,15.06%,9.712%
CC(C)c1noc(CN2CCC(C3CCCCCN3S(C)(=O)=O)CC2)n1.Cl (configuration not stated),-8.202%,-24.32%
Cc1oc(-c2ccoc2)nc1CN1CCCCC1CCc1ccccc1 (configuration not stated),5.881%,2.177% and 16.44%
CC(NC(=O)NCCC(=O)OC(C)(C)C)c1nncn1C (configuration not stated),7.549%,1.527%
Cc1cccc(C(C)CNC(=O)N2CCC3(C2)OCCO3)c1 (configuration not stated),0.1184% and 10.41%,-13.78%
CC(C)c1nn2c(-c3cnn(C)c3)nnc2s1,14.8%,2.431%
O=C(c1cnc(O)cn1)N1CCCC1c1nc2cc(F)ccc2[nH]1 (configuration not stated),-38.17%,-10.04%
CC(CO)NC(=O)c1ccc(NCc2ccc(F)c(F)c2)cc1 (configuration not stated),28.39%,-1.912%
CCC(=O)NC1CCN(c2cccc(OC(F)(F)F)c2)C1=O (configuration not stated),20.37%,15.51% and -4.408%
COc1cccc(NC(=O)CC2Cn3ncnc3NC2=O)c1 (configuration not stated),-3.762%,-20.14%
O=C(NCCC1CN(C2CCCC2)CCO1)c1c[nH]c(=O)[nH]c1=O (configuration not stated),0.6087%,6.306%
COc1ccc(CN2CCC(C(N)=O)CC2)cc1SC(F)(F)F,0.9093% and 4.685%,-0.3792% and -3.408%
CSc1nc(O)c(Cc2ccccc2)c(=O)n1-c1ccccc1,-7.994%,10.87%
Cc1ccc(-c2nnc(CN3CCNC(=O)C3)o2)cc1,-4.709%,-16.19%
[H][C@@]12CCN(C)[C@]1([H])CN(C(=O)c1csc(Cc3ccccc3)n1)C2,14.89%,-0.8632%
O=C(CCn1cncn1)N1CCCC(CO)(CCCc2ccccc2)C1 (configuration not stated),-4.659% and 1.189%,-21.42%
COc1cccc(CCC(=O)N2CCN(CC(C)(C)O)CC2)c1,-29.88%,-16.21%
Cc1cc(N[C@H]2CCCC[C@@H]2O)n2nccc2n1,-10.24%,0.3147%
CSCCNC(=O)C1CCC(=O)N(C2CCCC2)C1 (configuration not stated),-9.588%,-10.37%
O=C(C1CNCCO1)N1CCC(c2cc(N3CCCC3)ncn2)CC1 (configuration not stated),-4.188%,2.794%
[H][C@@]12OCCC[C@]1([H])N(C(=O)c1cnc(C)cn1)C[C@H]2NS(C)(=O)=O,30.41%,-7.424%
N#Cc1cccnc1N1CCCN(CC(=O)N2CCNC(=O)C2)CC1,16.26%,5.457%
CC1=C(CCN2C[C@H](O)[C@@H](N3CCOCC3)C2)C(C)(C)CCC1,22.2%,-9.615%
CCOC(=O)c1ccc(CNC(=O)c2ccon2)o1,-26.21%,-40.94%
O=C(Cc1c(F)cccc1Cl)Nc1cc(N2CCCC2)ncn1,6.369%,20.59%
CCc1nsc(N2CCCN(C(=O)COc3ccccc3)CC2)n1,-16.37%,2.154% and -0.3132%
O=c1[nH]cc(N2CCOCC2)c(=O)[nH]1,-9.926%,-33.93%
CC(=O)N(C)Cc1cncc(C2CCCN2C2CCOCC2)n1 (configuration not stated),-25.18%,0.394% and 12.92%
O=C1OCC(CO)N1Cc1cccc(Cl)c1F (configuration not stated),2.981%,-12.15%
CCNC(=O)c1sccc1N(C)S(=O)(=O)c1ccc(Cl)cc1,-33.04%,-29.35%
COCC(C)NC(=O)NCCc1cccc(OC)c1O (configuration not stated),0.8295% and 21.98%,17.28%
Cn1cnc(S(=O)(=O)NCC2(O)CCc3ccccc32)c1 (configuration not stated),0.509%,-19.59%
CC(C)N1CCC(c2nc3ccc(-c4ccnn4C)cn3n2)CC1.O=C(O)C(F)(F)F,-38.19%,15.01%
O=C(O)C(F)(F)F.[H][C@@]12CCN(Cc3ccc(C)cc3)C[C@]1([H])O[C@@H](C(=O)N(C)C)C2,-29.15%,1.062%
CN1CCN(C(=O)c2cc3sccc3n2Cc2ccccc2F)CC1,15.04% and -4.663%,-3.338%
COCc1nc(C(=O)NS(=O)(=O)c2ccc(F)cc2F)cs1,-15.72%,-13.6%
COCC1CN(Cc2ccoc2)Cc2cn(CC3CCCC3)nc21 (configuration not stated),-5.83%,-26.08%
CCc1sc(-c2nnc(CNC(C)Cn3cccn3)o2)cc1C (configuration not stated),13.82% and 26.97%,11.9%
CCN1CC(C)(C)CN(C(=O)CCc2ccccc2)CC1=O,-4.088%,-6.632%
Cc1noc(C)c1CN(C)CC(=O)N1CCc2sccc2C1,27.82%,19.58%
CCOCC1CN(S(=O)(=O)C2CC2)Cc2ncn(CC3CC3)c21 (configuration not stated),-3.699%,7.749%
CCc1ccc2c(c1)C(CCNC(=O)Cc1cccc(F)c1)C(=O)N2 (configuration not stated),-3.914%,19.49%
CNc1cccc(C2CN(C(=O)c3c[nH]cn3)CCO2)n1 (configuration not stated),-12.04%,-17.13%
c1cc(-c2ccc3c(c2)C2(CCNCC2)CC3)ccn1,4.355% and 5.104%,6.176%
CN1CCN(c2ccc(NCc3ccsc3)cn2)CC1,-82.77% and -17.27%,-51.16%
COc1c(CNC2(c3noc(C)n3)CCC2)c(C)nn1C.Cl,31.48%,-14%
CC(C)Oc1ccc(C(=O)Nc2nncs2)cn1,-16.39%,-11.13%
O=C(c1cnc2ccc(F)cc2c1NCc1ccco1)N1CCCCC1,-2.668% and -15.68%,-28.83%
CNC(=O)c1ccc(-c2ccc(CNS(=O)(=O)N(C)C)cc2)nc1C,2.786%,2.684%

The last 7 entries again:

Compound,Mtb glucose medium,Mtb cholesterol medium
CNc1cccc(C2CN(C(=O)c3c[nH]cn3)CCO2)n1 (configuration not stated),-12.04%,-17.13%
c1cc(-c2ccc3c(c2)C2(CCNCC2)CC3)ccn1,4.355% and 5.104%,6.176%
CN1CCN(c2ccc(NCc3ccsc3)cn2)CC1,-82.77% and -17.27%,-51.16%
COc1c(CNC2(c3noc(C)n3)CCC2)c(C)nn1C.Cl,31.48%,-14%
CC(C)Oc1ccc(C(=O)Nc2nncs2)cn1,-16.39%,-11.13%
O=C(c1cnc2ccc(F)cc2c1NCc1ccco1)N1CCCCC1,-2.668% and -15.68%,-28.83%
CNC(=O)c1ccc(-c2ccc(CNS(=O)(=O)N(C)C)cc2)nc1C,2.786%,2.684%